These are yes or no findings as the source states them, for the method shown. Binding seen in cells or lysates may run through a third protein. Some results given as binding are weak or reduced against the parent protein; the word gives no strength.

Amino acid sequences for entries named in this document (tags omitted). Residues count along the entry.
UniProt O35547: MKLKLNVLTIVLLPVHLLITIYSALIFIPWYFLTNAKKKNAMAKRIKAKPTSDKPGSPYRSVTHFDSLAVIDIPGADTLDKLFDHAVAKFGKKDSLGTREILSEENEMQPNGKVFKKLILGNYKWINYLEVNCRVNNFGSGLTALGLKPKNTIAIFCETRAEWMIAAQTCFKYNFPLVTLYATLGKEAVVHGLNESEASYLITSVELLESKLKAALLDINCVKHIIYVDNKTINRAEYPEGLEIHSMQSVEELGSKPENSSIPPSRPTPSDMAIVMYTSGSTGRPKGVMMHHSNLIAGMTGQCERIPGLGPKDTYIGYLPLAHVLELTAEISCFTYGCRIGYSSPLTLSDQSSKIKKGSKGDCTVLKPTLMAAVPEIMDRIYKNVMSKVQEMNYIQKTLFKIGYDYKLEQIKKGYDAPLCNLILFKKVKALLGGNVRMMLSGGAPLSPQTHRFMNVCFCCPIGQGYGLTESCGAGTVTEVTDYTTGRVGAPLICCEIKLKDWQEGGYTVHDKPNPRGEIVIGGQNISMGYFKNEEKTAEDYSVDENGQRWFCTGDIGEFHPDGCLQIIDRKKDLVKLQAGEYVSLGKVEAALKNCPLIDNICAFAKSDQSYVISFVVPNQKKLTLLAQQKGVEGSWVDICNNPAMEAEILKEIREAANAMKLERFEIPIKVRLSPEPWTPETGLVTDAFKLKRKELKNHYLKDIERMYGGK
UniProt Q5I0H3, residues 1-97: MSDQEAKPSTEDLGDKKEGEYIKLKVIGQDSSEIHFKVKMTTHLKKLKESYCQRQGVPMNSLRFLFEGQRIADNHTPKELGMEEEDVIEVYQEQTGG

1 substance from article PMC7976564 can be followed below.

The target in the test is acyl-CoA synthetase long-chain family member 4 (rat (endogenous in H9c2)) (UniProt O35547). As to the kind of experiment: co-IP; anti-ACSL4 antibody added to 500 µL H9c2 protein extract overnight at 4 °C, agarose beads, eluted by boiling in SDS reducing sample buffer, immunoblot for SUMO-1; cells infected with Ad5/F11p.SENP1 or Ad5/F11p.Null. (In general: Immunoblotting shows a protein as a band on a membrane.)

Take SUMO1 (from UniProt Q5I0H3 1-97): the binding entry is recorded as “binds”.
